Experimental data as given in US20060233788A1.
These are yes or no findings as the source states them, for the method shown. Some results given as binding are weak or reduced against the parent protein; the word gives no strength.

Molecular target: human ghrelin peptide spanning amino acids 4-20 (human)
Test: FLIPR assay, peptide (100 nM) competes with hGhrelin for the Fab (5 nM)

binding: binds
B1: Fab 4641 (Fab, V domains shown)
VH: QVQLQQSRPELVRPGASVKMSCRASAYTFTTYWMHWVRQRPGQGLEWIGMIDPSNSDTWLNQKFKDKATLNVDRSSNTAYMQLTSLTSEDSAVYYCARTGFDYWGQGTTLTVSS
VL: DVVMTQTPLSLPVSLGDQASISCRSSQSLVHSDGNTYLHWYLQKPGQSPKLLIYKVSNRFSGVPDRFSGSGSGTDFTLKISRVEAEDLGVYFCSQSTYVSYTFGGGTKLEIKR
